Reference: the supplement of paper PMC8728848
Some of the results follow.

How the values were obtained:
Test in all cases: glycan array binding signal (z-score within array); higher = stronger binding
Details in all cases: glycan notation: IUPAC condensed, linker removed
Gal6S(b1-4)Glc6S = molecular target: Gal6S(b1-4)Glc6S
How it was run: (§1)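 The binding signal is a Z-score computed within each array. Data were drawn from 3228 arrays in the Consortium for Functional Glycomics database, restricted to those with a known protein sequence. Scores were averaged over arrays of the same protein sequence at different concentrations or buffers, and over linkers, and negative values can be taken as non-binding.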

Gal6S(b1-4)GlcNAc = molecular target: Gal6S(b1-4)GlcNAc
How it was run: as §1

Gal6S(b1-4)GlcNAc6S = molecular target: Gal6S(b1-4)GlcNAc6S
How it was run: as §1

GalNAc(a1-3)Gal = molecular target: GalNAc(a1-3)Gal
How it was run: as §1

GalNAc(a1-3)GalNAc = molecular target: GalNAc(a1-3)GalNAc
How it was run: as §1

[1] = molecular target: GalNAc(a1-3)GalNAc(b1-3)Gal(a1-4)Gal(b1-4)Glc
How it was run: as §1

[2] = molecular target: GalNAc(a1-3)GalNAc(b1-3)Gal(a1-4)Gal(b1-4)GlcNAc
How it was run: as §1

GalNAc(b1-3)Gal = molecular target: GalNAc(b1-3)Gal
How it was run: as §1

[3] = molecular target: GalNAc(b1-3)Gal(a1-4)Gal(b1-4)GlcNAc
How it was run: as §1

[4] = molecular target: GalNAc(b1-3)Gal(a1-4)Gal(b1-4)GlcNAc(b1-3)Gal(b1-4)Glc
How it was run: as §1

[5] = molecular target: GalNAc(b1-3)Gal(a1-6)Gal(b1-4)Glc
How it was run: as §1

GalNAc(b1-3)GalNAc = molecular target: GalNAc(b1-3)GalNAc
How it was run: as §1

GalNAc(b1-3)GlcNAc = molecular target: GalNAc(b1-3)GlcNAc
How it was run: as §1

GalNAc(b1-4)Gal(b1-4)Glc = molecular target: GalNAc(b1-4)Gal(b1-4)Glc
How it was run: as §1

GalNAc(b1-4)GlcNAc = molecular target: GalNAc(b1-4)GlcNAc
How it was run: as §1

[6] = molecular target: GalNAc(b1-4)GlcNAc(b1-2)Man
How it was run: as §1

[7] = molecular target: GalNAc(b1-4)GlcNAc(b1-2)Man(a1-3)[GalNAc(b1-4)GlcNAc(b1-2)Man(a1-6)]Man(b1-4)GlcNAc(b1-4)GlcNAc
How it was run: as §1

[8] = molecular target: GalNAc(b1-4)GlcNAc(b1-3)GalNAc(b1-4)GlcNAc
How it was run: as §1

GalNAc(b1-4)GlcNAc6S = molecular target: GalNAc(b1-4)GlcNAc6S
How it was run: as §1

GalNAc(b1-6)GalNAc = molecular target: GalNAc(b1-6)GalNAc
How it was run: as §1

GalNAc3S(b1-4)GlcNAc = molecular target: GalNAc3S(b1-4)GlcNAc
How it was run: as §1

GalNAc3S(b1-4)GlcNAc3S = molecular target: GalNAc3S(b1-4)GlcNAc3S
How it was run: as §1

[9] = molecular target: GalNAc3S(b1-4)[Fuc(a1-3)]GlcNAc
How it was run: as §1

GalNAc4S6S(b1-4)GlcNAc = molecular target: GalNAc4S6S(b1-4)GlcNAc
How it was run: as §1

GalNAc6S(b1-4)GlcNAc = molecular target: GalNAc6S(b1-4)GlcNAc
How it was run: as §1

Glc(a1-4)Glc = molecular target: Glc(a1-4)Glc
How it was run: as §1

[10] = molecular target: Glc(a1-4)Glc(a1-4)Glc(a1-4)Glc
How it was run: as §1

Glc(a1-6)Glc(a1-6)Glc = molecular target: Glc(a1-6)Glc(a1-6)Glc
How it was run: as §1

[11] = molecular target: Glc(a1-6)Glc(a1-6)Glc(a1-6)Glc
How it was run: as §1

Glc(b1-4)Glc = molecular target: Glc(b1-4)Glc
How it was run: as §1

Glc(b1-6)Glc = molecular target: Glc(b1-6)Glc
How it was run: as §1

GlcA(b1-3)Gal = molecular target: GlcA(b1-3)Gal
How it was run: as §1

GlcA(b1-3)GlcNAc = molecular target: GlcA(b1-3)GlcNAc
How it was run: as §1

GlcA(b1-6)Gal = molecular target: GlcA(b1-6)Gal
How it was run: as §1

[12] = molecular target: GlcA3S(b1-3)Gal(b1-4)GlcNAc(b1-2)Man
How it was run: as §1

[13] = molecular target: GlcA3S(b1-3)Gal(b1-4)GlcNAc(b1-3)Gal(b1-4)Glc
How it was run: as §1

[14] = molecular target: GlcNAc(a1-3)Gal(b1-4)GlcNAc
How it was run: as §1

[15] = molecular target: GlcNAc(a1-4)Gal(b1-3)GlcNAc
How it was run: as §1

[16] = molecular target: GlcNAc(a1-4)Gal(b1-4)GalNAc
How it was run: as §1

[17] = molecular target: GlcNAc(a1-4)Gal(b1-4)GlcNAc
How it was run: as §1

[18] = molecular target: GlcNAc(a1-4)Gal(b1-4)GlcNAc(b1-3)Gal(b1-4)Glc
How it was run: as §1

[19] = molecular target: GlcNAc(a1-4)Gal(b1-4)GlcNAc(b1-3)Gal(b1-4)GlcNAc
How it was run: as §1

[20] = molecular target: GlcNAc(a1-4)Gal(b1-4)GlcNAc(b1-3)Gal(b1-4)GlcNAc(b1-3)Gal(b1-4)GlcNAc
How it was run: as §1

[21] = molecular target: GlcNAc(a1-4)Gal(b1-4)GlcNAc(b1-3)Gal(b1-4)[Fuc(a1-3)]GlcNAc(b1-3)Gal(b1-4)[Fuc(a1-3)]GlcNAc
How it was run: as §1

[22] = molecular target: GlcNAc(a1-6)Gal(b1-4)GlcNAc
How it was run: as §1

B1: EUL D1A second (Oryza sativa) (protein)
chain: GAATACTIGGVPVHTVRVFSAAGEDYCLTVRNGTACLAPKNPRDDYQHWIKDMRHSNKIRDEEGYPAFALVNKVTGEAIKHSTGQGHPVKLVPYNPEYQDESVLWTESKDVGKGFRCIRMVNNIYLNFDAFHGDKDHGGIHDGTEIVLWKWCEGDNQRWKILPWILEQKLISEEDLNSAVDHHHHHH
glycan array binding signal (z-score) (Gal6S(b1-4)Glc6S): 0.949 | glycan array binding signal (z-score) (Gal6S(b1-4)GlcNAc): -0.478 | glycan array binding signal (z-score) (Gal6S(b1-4)GlcNAc6S): 0.99 | glycan array binding signal (z-score) (GalNAc(a1-3)Gal): 0.425 | glycan array binding signal (z-score) (GalNAc(a1-3)GalNAc): -0.302 | glycan array binding signal (z-score) [1]: 0.152 | glycan array binding signal (z-score) [2]: 0.93 | glycan array binding signal (z-score) (GalNAc(b1-3)Gal): -0.727 | glycan array binding signal (z-score) [3]: 0.719 | glycan array binding signal (z-score) [4]: -0.809 | glycan array binding signal (z-score) [5]: -0.495 | glycan array binding signal (z-score) (GalNAc(b1-3)GalNAc): 0.63 | glycan array binding signal (z-score) (GalNAc(b1-3)GlcNAc): -0.511 | glycan array binding signal (z-score) (GalNAc(b1-4)Gal(b1-4)Glc): 0.707 | glycan array binding signal (z-score) (GalNAc(b1-4)GlcNAc): 0.307 | glycan array binding signal (z-score) [6]: -0.619 | glycan array binding signal (z-score) [7]: 0.637 | glycan array binding signal (z-score) [8]: 0.369 | glycan array binding signal (z-score) (GalNAc(b1-4)GlcNAc6S): 0.542 | glycan array binding signal (z-score) (GalNAc(b1-6)GalNAc): -0.616 | glycan array binding signal (z-score) (GalNAc3S(b1-4)GlcNAc): -0.821 | glycan array binding signal (z-score) (GalNAc3S(b1-4)GlcNAc3S): -0.9 | glycan array binding signal (z-score) [9]: 0.681 | glycan array binding signal (z-score) (GalNAc4S6S(b1-4)GlcNAc): 2.11 | glycan array binding signal (z-score) (GalNAc6S(b1-4)GlcNAc): -0.272 | glycan array binding signal (z-score) (Glc(a1-4)Glc): 0.317 | glycan array binding signal (z-score) [10]: -0.381 | glycan array binding signal (z-score) (Glc(a1-6)Glc(a1-6)Glc): 0.491 | glycan array binding signal (z-score) [11]: 1.62 | glycan array binding signal (z-score) (Glc(b1-4)Glc): -0.487 | glycan array binding signal (z-score) (Glc(b1-6)Glc): -0.895 | glycan array binding signal (z-score) (GlcA(b1-3)Gal): 0.806 | glycan array binding signal (z-score) (GlcA(b1-3)GlcNAc): 0.189 | glycan array binding signal (z-score) (GlcA(b1-6)Gal): 0.199 | glycan array binding signal (z-score) [12]: -1.01 | glycan array binding signal (z-score) [13]: -1.27 | glycan array binding signal (z-score) [14]: -0.059 | glycan array binding signal (z-score) [15]: -0.003 | glycan array binding signal (z-score) [16]: 0.11 | glycan array binding signal (z-score) [17]: -0.37 | glycan array binding signal (z-score) [18]: -0.602 | glycan array binding signal (z-score) [19]: 0.723 | glycan array binding signal (z-score) [20]: 0.272 | glycan array binding signal (z-score) [21]: 2.44 | glycan array binding signal (z-score) [22]: -0.904
